Reference: patent publication US11420967B2 (priority 2018, dated 2022)

Tested on: T98G cells
Assay: Antitumor activity in T98G cells in culture (WST-1 cell viability)
Assay type: cell-based, human
Experimental: Unless otherwise noted, maximal efficacies were measured at 10 μM. Data are the mean of at least three independent experiments performed in triplicate.
Cell culture. Cells were cultured in DMEM supplemented with 10% FBS, 100 U/mL penicillin, and 100 μg/mL streptomycin at 37° C. in a 5% CO2 humidified atmosphere. T98G and HepG2 cells (ATCC, Manassas, Va.) were authenticated by ATCC when purchased using human short tandem repeat analysis and maintained in culture for less than 6 months. Tumors were obtained from surgeries performed at the Swedish Medical Center (Seattle, Wash.) according to Institutional Review Board guidelines. Patient samples used in this study were diagnosed as WHO grade IV glioblastoma multiforme. Patient-derived GBM cells were established from the freshly resected tumor tissues and maintained in NeuroCult® NSA medium (Stem Cell Technologies) with B-27 serum-free supplement, 20 ng/mL epidermal growth factor and 20 ng/mL fibroblast growth factor 2 as previously described.
Cell viability. […] Maximal % killing was calculated as the % reduction in cell viability measured at all drug concentration. EC50 values were calculated and reported only when a curve was reliably extrapolated by Prism software. The solvent for all modified carbazoles was DMSO (0.1% final).

CN[C@H]1CCc2cc(OC)c(OC)c(OC)c2-c2ccc(OC)c(=O)cc21 [colcemide, reference compound]
EC50 (WST-1, 72 hours after treatment): 113 nM
maximal killing (% ± SEM) (at 10 μM, 72 hours): 35.9%±6.4
